Results deposited as PubChem BioAssay AID504791 (Drosophila RNAi Screening Center, 2011).
The deposit covers about 23,000 reagents; shown is a random part of those with a known target gene and a result. Over the whole deposit, 199 (0.86%) got an active call. 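Plate-scaled ratios behind the calls are not deposited; printed light signals are raw; many rows marked increased or decreased are still called inactive.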 Names joined by + are all predicted targets of the reagent. Not given: the direction of the score.

- Assay: 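Genes whose knock-down strengthens or weakens small-RNA reporter silencing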 (primary screen)
- Cells: Drosophila S2-derived reporter cells
- Knock-down reagent: long dsRNA against Drosophila genes, about 150-250 ng dsRNA per well (siRNA assay); about 80-120 ng (miRNA assay)
- Time to read-out: about 5 days (siRNA assay); about 4 days (miRNA assay)
- Treatment: copper sulfate induction of reporters: 25 µM (siRNA assay); 200 mM stated (miRNA assay), 1-2 days before reading
- Detection: 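Per-well ratio of Renilla over firefly light, expressed relative to that plate's average ratio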
- Active means: 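a well was a first-pass pick when its plate-scaled ratio rose above 1.5 (siRNA assay) or 1.6 (miRNA assay), or dropped below 0.6; a gene counted only if two separate dsRNAs agreed on retest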

predicted target | dsRNA | stable siRNA reporter change | stable assay Renilla, run 1 (luminescence) | stable assay firefly, run 1 (luminescence) | outcome
CG2790 | DRSC04045 | – | 43229 | 8.82e5 | inactive
Mpp6 | DRSC03169 | – | 8168 | 4.02e5 | inactive
grass | DRSC15911 | – | 6615 | 3.23e5 | inactive
CG44838 | DRSC10330 | reporter ratio raised past the hit cutoff | 5347 | 1.78e5 | inactive
CG44838 | DRSC10371 | – | 8574 | 3.70e5 | inactive
CG5191 | DRSC15733 | – | 7468 | 2.95e5 | inactive
CG5191 | DRSC15734 | – | 8036 | 3.66e5 | inactive
CG5191 | DRSC21559 | – | 8227 | 4.14e5 | inactive
CG8441 | DRSC07180 | – | 14643 | 5.05e5 | inactive
CG15545 | DRSC15083 | – | 6047 | 2.63e5 | inactive
acj6 | DRSC20304 | – | 8722 | 6.98e5 | inactive
CG4440 | DRSC02747 | – | 6403 | 5.37e5 | inactive
CG13920 | DRSC08389 | – | 9183 | 3.52e5 | inactive
smal | DRSC02318 | – | 5311 | 4.01e5 | inactive
smal | DRSC02319 | – | 6156 | 2.76e5 | inactive
smal | DRSC02320 | – | 6355 | 3.78e5 | inactive
smal | DRSC02504 | – | 6571 | 3.19e5 | inactive
smal | DRSC22866 | – | 5324 | 5.07e5 | inactive
Tusp | DRSC15838 | – | 6447 | 5.39e5 | inactive
Crg-1 | DRSC22882 | – | 3735 | 4.48e5 | inactive
lectin-33A | DRSC02529 | – | 7638 | 3.72e5 | inactive
lectin-33A | DRSC22116 | – | 9677 | 5.11e5 | inactive
Gle1 | DRSC06485 | – | 9150 | 3.72e5 | inactive
PPO2 | DRSC07102 | – | 8102 | 3.68e5 | inactive
CG13894 | DRSC08364 | reporter ratio raised past the hit cutoff | 4603 | 1.64e5 | inactive
CG13894 | DRSC23205 | – | 4615 | 3.58e5 | inactive
p47 | DRSC06046 | – | 9993 | 2.12e6 | inactive
RpS29 + snoRNA:Psi18S-1275 | DRSC16433 | – | 6626 | 3.42e5 | inactive
CG17147 | DRSC10249 | – | 6104 | 4.87e5 | inactive
CG13258 | DRSC02244 | – | 7527 | 4.06e5 | inactive
Debcl | DRSC04965 | – | 37243 | 1.37e6 | inactive
Ubc10 | DRSC07568 | – | 6030 | 4.26e5 | inactive
Ssrp | DRSC04658 | – | 16776 | 2.15e6 | inactive
CG14367 | DRSC14829 | – | 7602 | 3.21e5 | inactive
Krn | DRSC11202 | – | 10314 | 5.65e5 | inactive
LKRSDH | DRSC03015 | – | 14908 | 8.99e5 | inactive
CG5011 | DRSC00039 | – | 4035 | 3.44e5 | inactive
CG5011 | DRSC00674 | – | 45628 | 1.53e5 | inactive
Cyp4ac1 | DRSC03302 | – | 11327 | 7.52e5 | inactive
Hey | DRSC07440 | – | 5387 | 2.21e5 | inactive
Hey | DRSC23030 | – | 5052 | 3.06e5 | inactive
UQCR-Q | DRSC10886 | – | 6983 | 5.00e5 | inactive
Npc2h | DRSC14297 | – | 5335 | 3.56e5 | inactive
ctrip | DRSC12242 | – | 7854 | 3.49e5 | inactive
ctrip | DRSC12287 | – | 8642 | 5.23e5 | inactive
ctrip | DRSC22449 | – | 4163 | 3.70e5 | inactive
red | DRSC14477 | reporter ratio raised past the hit cutoff | 7114 | 2.36e5 | inactive
red | DRSC23177 | – | 2644 | 2.72e5 | inactive
CG13474 | DRSC10018 | – | 8421 | 5.62e5 | inactive
CG15368 | DRSC18040 | – | 4983 | 4.55e5 | inactive
CG15368 | DRSC23291 | – | 4103 | 3.38e5 | inactive
san | DRSC07695 | – | 5739 | 2.64e5 | inactive
Gr23a | DRSC00410 | – | 8946 | 4.83e5 | inactive
CG31459 | DRSC13380 | – | 4839 | 3.16e5 | inactive
CG34281 | DRSC14807 | – | 7358 | 5.17e5 | inactive
CG14855 | DRSC14979 | – | 6236 | 3.27e5 | inactive
CCT2 | DRSC18415 | – | 7432 | 3.96e5 | inactive
